The numbers were not newly measured in publication PMC6831628, “Steady-state activation of the high-affinity isoform of the α4β2δ GABAA receptor” (Scientific Reports, 2019), which cites them from elsewhere.

For the data set, the target named is receptors resulting from the expression of α4, β (β2 or β3), and δ subunits. The settings on record: read-out: GABA EC50, cited from earlier work.

Read-outs that look alike come from different tables or passages of the source.

For `NCCCC(=O)O` [GABA], the EC50 (usually the concentration giving half of the maximal effect) by setting is: (high-affinity type) less than 100 nM; (low-affinity type) more than 1000 nM.
